Measurements as given in article PMC12429696 (International Journal of Molecular Sciences, 2025).
Square brackets hold non-standard residues; d marks the D form. * marks the point of attachment. Boc = CC(C)(C)OC(=O)*; OBn = c1ccc(CO*)cc1

Assay: general procedure: solution-phase peptide synthesis; TBTU/NMM

Substance	step yield (coupling step) [%]	step yield (late stage modification step) [%]
Boc2-Tyr-D-Ala-Phe-D-Ala-Tyr-Pro-Ser(Bzl)-NH2	95	
Boc-Y[dA]F[dA]-OBn	95	
Cyclo-[L-Lys(H-Tyr-D-Ala-Phe-D-Ala-Tyr-Pro-Ser)-L-Glu(L-Trp-NH2)]	95	82
TFA. H-Tyr-D-Ala-Phe-D-Ala-Tyr-Pro-Ser(Bzl)-NHMe		92
